# Data: US7785828B1 (priority 2003, dated 2010)
# Test: Quantitative competition ELISA of NP and defensin concentration in planta
# Details: homogenised leaf from the transgenic wheat plant
row,Sequence,expression level in planta
1,NLCERASKTWSGNCGNTKHCDNQCKNWEGAKHGACHVRNGKHKCFCYFNC [L6-28] (Defensin like),Low expression levels
2,QKLCQKPSRTWSGVCGNNNACKNQCIRLEKARHGSCNYVFPAHKCICYFPC (Defensin like) [L2-12],comparable to the Rs-AFP2 wild type
3,QKLCQRPSGTWSGVCMNNNACKNQCIRLEKAKHGSCNYVFPAHKCICYFPC (Defensin like) [L2-52],comparable to the Rs-AFP2 wild type
